# Some of the results follow.
# System: T1, CTL2-GFP (C. trachomatis L2/434/Bu, GFP-expressing)
# T1 construct: L2/434/Bu, GFP-expressing
# Parameters: species or system HeLa; Intracellular C. trachomatis growth in HeLa cells, bulk GFP fluorescence relative to DMSO
# Settings: bulk GFP, single well; 28.5 h, 10 µM; inhibitor
row,SMILES,% of control remaining
1,Cc1ccc(-c2nn(CCC#N)cc2C(=O)N2CCCCC2)cc1C [CBK306131],155.533%
2,CCOc1cccc(-c2cn3ccnc3c(N3CCN(CCO)CC3)n2)c1 [CBK066612],190.327%
3,O=C(NCCc1c[nH]c2ccccc12)c1ccc(-c2ccco2)nc1N1CCN(C(=O)c2ccco2)CC1 [CBK076217],100%
4,CC(=O)N1CCC[C@H]2NC(=O)CNC(=O)C3(C/C=C/C[C@H]21)CCN(c1ncccn1)CC3 [CBK292042],93.5237%
5,Cn1c(SCC(=O)Nc2ccc(F)cc2)nnc1-c1cccnc1 [CBK267035],159.806%
6,O=C(NCc1ccccn1)c1ncoc1-c1ccc(F)cc1 [CBK282352],112.351%
7,CC(C)N(Cc1nc(-c2ccc(Cl)cc2)no1)C(=O)COc1ccc(Br)cc1Cl [CBK267126],108.557%
8,CCOc1cc(/C=c2/sc3nc(=O)c(Cc4ccccc4)nn3c2=O)ccc1OC(C)=O [CBK077455],100%
9,O=C(COc1ccccc1)Nc1cccc(N2CCNCC2)c1 [CBK028271T],116.227%
10,CCN(CC(=O)Nc1ccc2c(c1)OCCO2)S(=O)(=O)c1ccsc1C(=O)O [CBK296717],128.461%
11,Cc1cc(C)n(CC(C)C(=O)Nc2cccnc2)n1 (stereo not drawn) [CBK307573],132.233%
12,Cc1cc(CN2CCN(S(=O)(=O)c3ccc(C(=O)c4ccccc4)cc3)CC2)cc(C)c1O [CBK062933],105.69%
13,COc1ccccc1/C=C/CN(C)CCN(C)C [CBK261888],100%
14,C#CCNC(=O)[C@@H]1Cc2cn(Cc3c(C)noc3C)c3cccc(c23)[C@H](CC(C)C)N1 [CBK289425],159.997%
15,Fc1ccccc1COc1ccccc1CNCCN1CCOCC1 [CBK278222C],160.291%
16,Nc1nc(CSc2nnc(-c3ccco3)n2-c2ccccc2)cs1 [CBK269693],92.1515%
17,COc1cc(/C=C/C(=O)NCc2ccc(C(=O)O)cc2)ccc1O [CBK286728],132.934%
18,CC(=O)Nc1ccc(S(=O)(=O)N2CCN(S(=O)(=O)c3ccc(C)cc3)CC2)cc1 [CBK264276],134.467%
19,O=S(=O)(Nc1ccc(N2CCNCC2)c2ccccc12)c1ccc(Br)cc1F [CBK200014C],72.7626%
20,Cc1ccc(C(=O)O)cc1NC(=O)c1cccc(C(=O)Nc2cc(C(=O)O)ccc2C)c1 [CBK262797],100%
21,CSc1ncc(Cl)c(C(=O)Nc2nc(-c3ccc(S(=O)(=O)N4CCOCC4)cc3)cs2)n1 [CBK269064],116.175%
22,Cc1ccc(C=C(c2ccccc2)c2nc3sc(C(=O)O)c(C)c3c(=O)[nH]2)s1 [CBK295638],145.121%
23,CCC(C(=O)O)c1ccc(-n2sc3ccccc3c2=O)cc1 (stereo not drawn) [CBK011773],85.147%
24,O=C(CSc1ccc2ccccc2c1)Nc1ccc(Cl)c(C(=O)O)c1 [CBK268239],117.888%
25,O=C(CSc1cccc2c(SCC(=O)c3ccccc3)cccc12)c1ccccc1 [CBK261255],100%
26,O=C(CCc1ccc(S(=O)(=O)NC2CCCCC2)cc1)Nc1ccc2c(c1)OCCO2 [CBK266845],152.443%

# By substructure, the compounds so far with an aryl methoxy group.
row,SMILES,% of control remaining
13,COc1ccccc1/C=C/CN(C)CCN(C)C [CBK261888],100%
17,COc1cc(/C=C/C(=O)NCc2ccc(C(=O)O)cc2)ccc1O [CBK286728],132.934%

# 3 entries from above, with tabs.
row	SMILES	% of control remaining
4	CC(=O)N1CCC[C@H]2NC(=O)CNC(=O)C3(C/C=C/C[C@H]21)CCN(c1ncccn1)CC3 [CBK292042]	93.5237%
6	O=C(NCc1ccccn1)c1ncoc1-c1ccc(F)cc1 [CBK282352]	112.351%
12	Cc1cc(CN2CCN(S(=O)(=O)c3ccc(C(=O)c4ccccc4)cc3)CC2)cc(C)c1O [CBK062933]	105.69%

# Next part

row,SMILES,% of control remaining
1,COc1ncc(-c2nccnc2N2CCCC2CO)c(OC)n1 (stereo not drawn) [CBK036638],113.49%
2,c1cnc(N2CCN(Cc3ccc4c(c3)OCO4)CC2)c(OC2CCCCC2)n1 [CBK082833T],105.816%
3,Brc1cn2ccnc2c(Nc2ccc3[nH]ccc3c2)n1 [CBK037449],99.8018%
4,CCOc1oc2cc(O)ccc2c1C(=O)CSC1CCCCC1 [CBK022262],95.9098%
5,CS(=O)(=O)c1ccc(-c2ccc(OCC3CCN(C(=O)c4cccc(C#N)c4)CC3)nc2)cc1 [CBK162283],98.9259%
6,CCCc1nn(CC(=O)OC)c(=O)c2cc3ccsc3n12 [CBK284144],108.775%
7,O=C(O)C1C2C=CC(O2)C1C(=O)Nc1ccc(S(=O)(=O)N2CCc3ccccc32)cc1 (stereo not drawn) [CBK268176],113.711%
8,CC(NC(=O)C1CCN(CCN2C(=O)c3ccccc3C2=O)CC1)c1ccc(F)cc1 (stereo not drawn) [CBK148750],110.115%
9,O=C(CC(NC(=O)c1ccccc1)c1ccccc1)Nc1cccc2ccccc12 (stereo not drawn) [CBK263901],119.758%
10,COc1ccc(C(=O)Nc2ccc(N3CCN(C(=O)C(C)(C)C)CC3)cc2)cc1 [CBK270266],115.369%
11,CCC(=O)N1CCN(CCNC=C2C(=O)CC(c3cccs3)CC2=O)CC1 (stereo not drawn) [CBK264817],117.89%
12,CN1CCC(=NNC(=O)CN(c2ccc(Oc3ccccc3)cc2)S(C)(=O)=O)CC1 [CBK262338],100%
13,CC(C)N1CCCC(CNC(=O)C2Cc3cc(Cl)ccc3O2)C1 (stereo not drawn) [CBK282686],115.264%
14,O=S(=O)(CCN1CCN(Cc2ccccc2)CC1)c1ccc(F)cc1 [CBK074809],61.9897%
15,CC(C)NC(=O)C1(Cc2ccc(-c3ccccc3F)cc2)CCN(C(=O)C(C)C)CC1 [CBK285754],118.157%
16,Cc1cc(S(=O)(=O)Nc2ccccc2-c2nncn2C)c(C)o1 [CBK306414],107.123%
17,c1ccc(CCN2CCN(Cc3cccnc3)CC2)cc1 [CBK126424],125.174%
18,CSc1nc2ccc(S(=O)(=O)NCCOc3ccc(Cl)cc3)cc2s1 [CBK268219],125.255%
19,Cc1nn(-c2ccc(F)cc2)c2[nH]c(=O)c(CNC3CC3)cc12 [CBK283121],119.395%
20,O=C(c1ccc(OC(F)(F)F)cc1)N1CCC2(CCCNC2)C1 (stereo not drawn) [CBK137156C],111.786%
21,CN(C)CCn1c(C(=O)O)cc2ccccc21 [CBK268234C],91.7888%
22,O=C(NC(c1ccccc1)c1ccccc1)N1CCCC(CO)C1 (stereo not drawn) [CBK156036],119.528%
23,O=C1NC2(CCSCC2)Oc2ccccc21 [CBK007488],135.036%
24,Cc1ccc(C(=O)NC(C)c2nc3ccccc3n2Cc2ccc(C(=O)O)o2)cc1 (stereo not drawn) [CBK295159],103.711%
25,O=S(=O)(Nc1cccc(-c2nnn[nH]2)c1)c1ccc(F)cc1 [CBK050470],108.222%
26,O=C(NC(Nc1cccc(C(F)(F)F)c1)C(=O)c1ccccc1)c1ccc(Cl)cc1 (stereo not drawn) [CBK263585],117.984%

row,SMILES,% of control remaining
1,Cc1csc(NC(=O)Cc2ccccc2F)n1 [CBK288252],116.45%
2,C=CCN(c1ccc(C(=O)O)cc1)S(=O)(=O)c1ccc(/C=C/C(=O)O)cc1 [CBK263364],121.525%
3,CC(C(=O)NC1(C#N)CCCCC1)N1CCOC(c2nccs2)C1 (stereo not drawn) [CBK305299],130.47%
4,Cc1nc(-c2ccccc2)c(CC(=O)N(C)CCN(C)C)s1 [CBK282725],150.41%
5,OCc1ccccc1-c1nccnc1NCc1ccc2c(c1)OCO2 [CBK038046],98.6049%
6,O=S(=O)(c1ccc(C2=CSC3=NCCN23)cc1)N1CCOCC1 [CBK019381],106.965%
7,COc1cccc(C(CNS(=O)(=O)c2ccc3c(c2)OCCCO3)N(C)C)c1 (stereo not drawn) [CBK298270],138.099%
8,COC(=O)Cn1c(-c2ccc(F)cc2)cc2cccnc21 [CBK282763],121.569%
9,O=C(Cc1ccc(Cl)c(Cl)c1)NC(c1ccccc1)c1ccccn1 (stereo not drawn) [CBK144110],100%
10,O=C(Nc1ccc(N2CCNCC2)nc1)C1CCCO1 (stereo not drawn) [CBK004748T],136.101%
11,CC(=O)N1CCc2sccc2C1c1ccc(NC(=O)c2ccco2)cc1 (stereo not drawn) [CBK286199],104.973%
12,CC(C)(CN)CN(Cc1ccccc1C(F)(F)F)C(=O)Nc1ccc(C(C)(C)C)cc1 [CBK026828C],96.4652%
13,CN1CCN(S(=O)(=O)c2cccc(C(F)(F)F)c2)CC1 [CBK062425],101.954%
14,Cc1ccc(C(=O)N2CCC(Cc3ccccc3-c3ccccc3)(C(=O)N(C)C)CC2)s1 [CBK285677],124.932%
15,CCn1cncc1CN1CCN(CC2(c3ccc(C)cc3)CC2)CC1 [CBK283307],130.161%
16,CCNC(=O)C1(Cc2ccc(-c3cccs3)cc2)CCN(C(=O)Cc2ccccc2)CC1 [CBK285795],89.5094%
17,COc1cc(C#N)ccc1Oc1nnnn1-c1ccccc1 [CBK002571],91.212%
18,CCn1c(=O)[nH]c(=O)c2cnc(-c3ccc(OC)cc3)nc21 [CBK291259],91.2336%
19,CC(C)(C)c1csc(C(=Cc2ccc(C#N)cc2)C(N)=O)n1 [CBK001154],94.0183%
20,Cc1nc(-c2ccc(CCNC(=O)c3cc(O)nc4ccccc34)s2)cs1 [CBK297720],90.442%
21,COc1ccc(-n2cc(-c3ccc(F)cc3)nn2)cc1OC [CBK113110],115.203%
22,Fc1ccccc1CN(CCCn1ccnc1)Cc1ccco1 [CBK282952],102.631%
23,O=C1NC(=O)C(CC(=O)N2CCC3(CCCNC3)C2)N1 (stereo not drawn) [CBK153232C],115.401%
24,Cc1cc(C)c(OCCCN2CCCCCC2)c(Cl)c1 [CBK266026G],170.597%
25,Cn1nccc1CN(Cc1ccc(F)cc1)Cc1cccnc1 [CBK282261],107.114%
26,COc1ccc2[nH]c(NCCCO)nc2c1 [CBK264155],139.057%
